Measurements taken from article PMC5458547, “Discovery of first-in-class reversible dual small molecule inhibitors against G9a and DNMTs in hematological malignancies” (Nature Communications, 2017).

Tested on: 90 non-mutant kinases
Experiment: KINOMEscan selectivity score
Format: binding
Conditions: 10 µM

For `COc1cc2c(NC3CCN(C)CC3)cc(-c3ccc(C)o3)nc2cc1OCCCN1CCCC1` [CM-272, 6-methoxy-2-(5-methyl-2-furyl)-N-(1-methyl-4-piperidyl)-7-(3-pyrrolidin-1-ylpropoxy)quinolin-4-amine], which “Number of Hits S(1)” value (Percent Control < 1%) is on record?
The value was 7.

What about the “Number of Hits S(10)” value (Percent Control < 10%) of the same compound?
The value was 12.

What about the “Number of Hits S(35)” value (Percent Control < 35%) of the same compound?
Its value is 29.
